PubChem BioAssay AID720505 | Drosophila RNAi Screening Center – 2013
The screen tested about 20,000 reagents; below is an unselected part of those that have a named target and a result. Of all reagents, about 2,100 (10%) got an active call. 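Raw plate signals without normalisation; calls rest on control-based scores that were not deposited; replicate 2 separates called from uncalled poorly.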 Names joined by + are all predicted targets of the reagent. Reagent sequences are not shown. Not stated in the record: the amount of reagent, the time to read-out.

- Screen: 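Fly regulators or components of the CRAC channel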 (primary screen)
- System: Drosophila S2R+ cells
- Reagent: long dsRNA against Drosophila genes
- Treatment: thapsigargin (2 µM) in calcium-free buffer to empty internal stores, then 2 mM calcium added back
- Detection: 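Stores emptied by 2 µM thapsigargin without calcium, then 2 mM calcium re-added; fluo-4 fluorescence followed by FLIPR in 384-well plates, per-well averaged endpoint, raw; two screen passes, some wells retested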
- Direction: calcium signal and retest calcium signal: higher = more calcium entry after store depletion
- Hit rule: 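Knock-downs counted as hits when calcium entry dropped relative to STIM1 positive and Rho1 negative controls present on each plate; roughly 1500 genes called, with reductions of differing size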
- Meaning of the calls: active = called as lowering calcium entry; inactive = not called

Target gene | amplicon | calcium signal, replicate 1 | calcium signal, replicate 2 | retest calcium signal, replicate 1 | retest calcium signal, replicate 2 | call
l(1)10Bb | DRSC20346 | 75.8 | 89.6 | – | – | active
TpnC47D | DRSC07564 | 138 | 170 | – | – | inactive
aln | DRSC08240 | 84.4 | 90 | – | – | inactive
Cyfip | DRSC15679 | 78.1 | 108 | – | – | active
Rab9Fb | DRSC19854 | 57.5 | 84.8 | – | – | active
Cyt-c-p | DRSC03310 | 82.5 | 85.8 | – | – | inactive
moi + Tgs1 | DRSC16371 | 146 | 148 | – | – | inactive
Gadd45 | DRSC06033 | 152 | 126 | – | – | inactive
CG32536 + CG32537 | DRSC20074 | 121 | 103 | 7201 | 161 | inactive
jef | DRSC06198 | 109 | 177 | – | – | inactive
CG13607 | DRSC14610 | 215 | 161 | – | – | inactive
CG33287 | DRSC22929 | 117 | 187 | – | – | inactive
CG32054 | DRSC10684 | 88.9 | 109 | – | – | inactive
CG16903 | DRSC18561 | 68.3 | 97.6 | – | – | active
CG6431 | DRSC02956 | 88.3 | 88 | – | – | inactive
CG33232 (retired record) | DRSC08187 | 137 | 80.6 | – | – | inactive
CG33232 (retired record) | DRSC08495 | 74.3 | 60 | – | – | inactive
Theg | DRSC16023 | 112 | 177 | – | – | inactive
Elo68beta | DRSC09860 | 98.8 | 126 | – | – | inactive
CG15221 | DRSC19659 | 113 | 128 | – | – | inactive
Ugt304A1 | DRSC15127 | 84.9 | 74.7 | – | – | inactive
Trim9 | DRSC02242 | 197 | 156 | – | – | inactive
CG9919 | DRSC20219 | 82.7 | 144 | – | – | inactive
Jhbp13 | DRSC02913 | 114 | 90 | – | – | inactive
SdhA | DRSC07547 | 190 | 101 | – | – | inactive
hkb | DRSC12377 | 104 | 144 | 153 | 133 | inactive
Fancd2 | DRSC15208 | 187 | 203 | – | – | inactive
Fancd2 | DRSC22763 | 115 | 152 | – | – | inactive
CG18493 | DRSC15334 | 188 | 187 | – | – | inactive
spaw | DRSC06824 | 116 | 139 | – | – | inactive
CG3829 | DRSC04423 | 144 | 105 | – | – | inactive
mRpS31 | DRSC10556 | 107 | 86.3 | – | – | inactive
Sgf11 | DRSC09987 | 100 | 174 | – | – | inactive
ed | DRSC00350 | 142 | 209 | – | – | inactive
ed | DRSC00438 | 196 | 76 | – | – | inactive
ed | DRSC00439 | 190 | 76.5 | – | – | inactive
ed | DRSC00478 | 72.8 | 180 | – | – | active
Jhedup | DRSC07173 | 112 | 122 | – | – | inactive
CG2691 | DRSC19866 | 139 | 128 | – | – | inactive
HtrA2 | DRSC16425 | 120 | 100 | – | – | inactive
CG33791 + CG18170 | DRSC08523 | 107 | 88.8 | – | – | inactive
CG33791 + CG18170 | DRSC08601 | 106 | 135 | – | – | inactive
Dup99B | DRSC22877 | 86.3 | 144 | – | – | inactive
Cyp6t1 | DRSC20564 | 108 | 87.8 | – | – | inactive
CG8252 | DRSC07126 | 173 | 149 | – | – | inactive
spidey | DRSC17932 | 116 | 116 | – | – | inactive
Cpsf73 | DRSC16291 | 227 | 166 | – | – | inactive
CG4676 | DRSC06879 | 110 | 173 | – | – | inactive
CG10098 | DRSC12509 | 119 | 136 | – | – | inactive
CG9782 | DRSC19145 | 108 | 123 | – | – | inactive
CG9782 | DRSC20209 | 105 | 98.7 | – | – | inactive
CG5235 | DRSC10494 | 104 | 217 | – | – | inactive
Femcoat | DRSC18061 | 142 | 112 | – | – | inactive
iotaTry | DRSC07634 | 120 | 231 | – | – | inactive
alka | DRSC06136 | 132 | 196 | – | – | inactive
Wbp2 | DRSC09821 | 162 | 83.5 | – | – | inactive
CG13639 | DRSC14638 | 139 | 104 | – | – | inactive
Galphai | DRSC11168 | 122 | 96.4 | – | – | inactive
Spn85F | DRSC14545 | 108 | 145 | – | – | inactive
SF2 | DRSC16845 | 107 | 234 | – | – | inactive
CG7248 | DRSC10788 | 132 | 107 | – | – | inactive
CG32112 | DRSC09815 | 78.6 | 84.6 | – | – | inactive
CG13540 | DRSC04182 | 85.1 | 141 | – | – | inactive
Mal-A7 | DRSC06077 | 160 | 114 | – | – | inactive
Targ | DRSC06206 | 133 | 150 | – | – | inactive
CG18563 | DRSC02676 | 122 | 120 | – | – | inactive
CG5103 | DRSC10481 | 82.3 | 162 | – | – | inactive
Smyd4-3 | DRSC07041 | 170 | 158 | – | – | inactive
Mbs | DRSC10525 | 118 | 74.2 | – | – | inactive
Mbs | DRSC10553 | 111 | 160 | 94.8 | 95.3 | inactive
CG4658 | DRSC02768 | 207 | 154 | – | – | inactive
CG5681 | DRSC02876 | 110 | 113 | – | – | inactive
Cbs | DRSC20553 | 181 | 86.3 | – | – | inactive
Syx16 | DRSC20507 | 144 | 132 | – | – | inactive
Ccdc39 | DRSC12286 | 106 | 96 | – | – | inactive
CG42304 + Snup | DRSC08276 | 66.8 | 107 | – | – | active
CG42304 + Snup | DRSC08277 | 70.4 | 88.4 | – | – | inactive
CG42304 + Snup | DRSC22781 | 144 | 140 | – | – | inactive
CG5021 | DRSC10469 | 89.9 | 70.5 | – | – | inactive
IntS1 | DRSC04343 | 197 | 97.8 | – | – | inactive
CG43397 + CG12902 | DRSC06217 | 124 | 125 | – | – | inactive
CG30423 | DRSC04013 | 69.6 | 74 | – | – | active
CG2533 | DRSC19855 | 117 | 91 | – | – | inactive

Targets listed so far whose gene name starts with H or h (2):
Target gene | amplicon | calcium signal, replicate 1 | calcium signal, replicate 2 | retest calcium signal, replicate 1 | retest calcium signal, replicate 2 | call
hkb | DRSC12377 | 104 | 144 | 153 | 133 | inactive
HtrA2 | DRSC16425 | 120 | 100 | – | – | inactive
